According to patent publication US7094946B1, “Animal model for allergic disorders” (Astellas Pharma Inc., priority 2000, dated 2006):
At least one compound was matched to its structure with a doubt left.

Tested on: dermatitis lesions (ear swelling) of NC/Nga mice injected with the mite antigen
Experiment: Effect of atopic dermatitis medicines on mite antigen-induced ear swelling (Example 2)
Format: in vivo
Details: plastered onto ventral side of right ear 3 hours before and after mite antigen injection; 18th day; FIG. 9

SMILES: C=CC[C@@H]1/C=C(\C)C[C@H](C)C[C@H](OC)[C@H]2O[C@@](O)(C(=O)C(=O)N3CCCC[C@H]3C(=O)O[C@H](/C(C)=C/[C@@H]3CC[C@@H](O)[C@H](OC)C3)[C@H](C)[C@@H](O)CC1=O)[C@H](C)C[C@@H]2OC [FK506]
- ear swelling among Dp mice treated with medicine: significantly less swelling
